Results deposited as PubChem BioAssay AID1224828 (NIAID, 2016)
Screen: 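Find genes required for NF-kappaB p65 moving into the nucleus after LPS in mouse macrophages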 (primary screen). Cell system: mouse RAW264.7 G9 macrophage reporter cells (GFP-p65, Tnf promoter-mCherry). Reagent: siRNA pool against mouse genes, 100 nM. Timing: 2 days siRNA transfection, then 40 min LPS before fixation. Conditions: LPS (Salmonella minnesota R595) at 10 ng/ml. Measured: 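Imaged p65 nuclear translocation ratio, normalised to the plate median, converted to robust z-scores and averaged across two replicates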. Direction: p65 translocation robust z-score: higher = more nuclear NF-kappaB p65 after LPS than the plate median; nuclear/cytoplasmic p65 ratio: higher = more nuclear NF-kappaB p65. Active means: 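Active if robust z is above 3.3 (negative regulators) or below -1.56, the Tlr4 control median (positive regulators); activity score 50 or more; control wells not called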. Meaning of the calls: active = hit (p65 shift raised or lowered); inactive = no clear change.
Here is an unselected part of about 17,000 deposited reagents. Of all reagents, 762 (4.5%) are marked active. 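Active calls include both raised and lowered p65 entry, mostly lowered; wells with fewer than 50 cells lack a z-score.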 Raw values vary from plate to plate and are shown uncorrected. The numbers tell different reagents against one gene apart.

no.	gene knocked down	reagent	p65 translocation robust z-score	nuclear/cytoplasmic p65 ratio, rep 1	nuclear/cytoplasmic p65 ratio, rep 2	low cell count flag	activity call
1	Tcerg1l (transcription elongation regulator 1-like)	1	-1.28	1.14	1.35	enough cells to score	inactive
2	Cabp5 (calcium binding protein 5)	1	-2.42	1.23	1.33	enough cells to score	active
3	Cadm2 (cell adhesion molecule 2)	1	-1.34	1.35	1.26	enough cells to score	inactive
4	Ranbp2 (RAN binding protein 2)	1	-0.94	1.45	1.32	enough cells to score	inactive
5	Zfp7 (zinc finger protein 7)	1	0.16	1.57	1.49	enough cells to score	inactive
6	Pex11g (peroxisomal biogenesis factor 11 gamma)	1	-1.08	1.29	1.24	enough cells to score	inactive
7	Il4 (interleukin 4)	1	-0.74	1.33	1.32	enough cells to score	inactive
8	Pabpc1 (poly(A) binding protein, cytoplasmic 1)	1	0.98	1.57	1.41	enough cells to score	inactive
9	Nos2 (nitric oxide synthase 2, inducible)	1	-0.35	1.46	1.31	enough cells to score	inactive
10	Oosp1 (oocyte secreted protein 1)	1	2.11	1.93	1.31	enough cells to score	inactive
11	Rhox11 (reproductive homeobox 11)	1	-0.27	1.28	1.49	enough cells to score	inactive
12	Slx4 (SLX4 structure-specific endonuclease subunit)	1	-0.71	1.44	1.31	enough cells to score	inactive
13	Nkx6-1 (NK6 homeobox 1)	1	-2.35	1.24	1.1	enough cells to score	active
14	Ppp3cb (protein phosphatase 3, catalytic subunit, beta isoform)	1	0.33	1.58	1.42	enough cells to score	inactive
15	Nos1 (nitric oxide synthase 1, neuronal)	1	0.54	1.59	1.42	enough cells to score	inactive
16	Ugt2b35 (UDP glucuronosyltransferase 2 family, polypeptide B35)	1	-1.25	1.37	1.62	enough cells to score	inactive
17	Btbd35f1 (BTB domain containing 35, family member 1)	1	-0.06	1.38	1.42	enough cells to score	inactive
18	Gpr85 (G protein-coupled receptor 85)	1	-0.16	1.5	1.54	enough cells to score	inactive
19	Kif16b (kinesin family member 16B)	1	1.79	1.69	1.64	enough cells to score	inactive
20	Smarcc2 (SWI/SNF related BAF chromatin remodeling complex subunit C2)	1	-0.52	1.54	1.53	enough cells to score	inactive
21	Hopx (HOP homeobox)	1	-3.03	1.24	1.06	enough cells to score	active
22	Fbxl6 (F-box and leucine-rich repeat protein 6)	1	-1.46	1.25	1.19	enough cells to score	inactive
23	Ctnnd2 (catenin delta 2)	1	0.13	1.43	1.44	enough cells to score	inactive
24	Vamp7 (vesicle-associated membrane protein 7)	1	-0.51	1.35	1.09	enough cells to score	inactive
25	Shc1 (src homology 2 domain-containing transforming protein C1)	1	-0.81	1.44	1.27	enough cells to score	inactive
26	Slc17a3	1	0.43	1.31	1.31	enough cells to score	inactive
27	Tmc7 (transmembrane channel-like gene family 7)	1		1.5	1.4	fewer than 50 cells per well; well left out of scoring	inactive
28	Ankrd61 (ankyrin repeat domain 61)	1		2.65	1.28	fewer than 50 cells per well; well left out of scoring	inactive
29	A530013C23Rik (RIKEN cDNA A530013C23 gene)	1	-1.51	1.22	1.32	enough cells to score	inactive
30	4932411K12Rik (retired record)	1		1.22	1.23	fewer than 50 cells per well; well left out of scoring	inactive
31	Emc1 (ER membrane protein complex subunit 1)	1	1.38	1.57	1.76	enough cells to score	inactive
32	Ints7 (integrator complex subunit 7)	1	-0.4	1.49	1.61	enough cells to score	inactive
33	D630028G08Rik (RIKEN cDNA D630028G08 gene)	1	-0.47	1.48	1.65	enough cells to score	inactive
34	Bud23 (BUD23, rRNA methyltransferase and ribosome maturation factor)	1	0.45	1.45	1.32	enough cells to score	inactive
35	Por (cytochrome p450 oxidoreductase)	1	1.32	1.73	1.54	enough cells to score	inactive
36	Tspan15 (tetraspanin 15)	1		1.29	1.29	fewer than 50 cells per well; well left out of scoring	inactive
37	Thrb (thyroid hormone receptor beta)	1	-0.22	1.4	1.57	enough cells to score	inactive
38	Or52s19 (olfactory receptor family 52 subfamily S member 19)	1	1.34	1.62	1.35	enough cells to score	inactive
39	Tspan13 (tetraspanin 13)	1	-0.46	1.32	1.14	enough cells to score	inactive
40	Inpp5e (inositol polyphosphate-5-phosphatase E)	1	-1.27	1.36	1.3	enough cells to score	inactive
41	Snap47 (synaptosomal-associated protein, 47)	1	-0.35	1.46	1.43	enough cells to score	inactive
42	Sox3 (SRY (sex determining region Y)-box 3)	1	-0.28	1.42	1.6	enough cells to score	inactive
43	Tra2a (transformer 2 alpha)	1	-1.53	1.42	1.15	enough cells to score	inactive
44	Tra2a (transformer 2 alpha)	2	1.48	1.72	1.75	enough cells to score	inactive
45	Efnb3 (ephrin B3)	1		1.5	1.21	fewer than 50 cells per well; well left out of scoring	inactive
46	Ncstn (nicastrin)	1	0.07	1.96	1.46	enough cells to score	inactive
47	Serpinf1 (serine (or cysteine) peptidase inhibitor, clade F, member 1)	1	-0.31	1.45	1.56	enough cells to score	inactive
48	Hipk4 (homeodomain interacting protein kinase 4)	1		1.45	1.59	fewer than 50 cells per well; well left out of scoring	inactive
49	Abca8a (ATP-binding cassette, sub-family A member 8a)	1	1.12	1.66	1.97	enough cells to score	inactive
50	Fbxl9 (F-box and leucine-rich repeat protein 9)	1	0.48	1.22	1.59	enough cells to score	inactive
51	Sema6a	1	0.03	1.43	1.26	enough cells to score	inactive
52	Taf1a	1	0.58	1.54	1.66	enough cells to score	inactive
53	Sh3gl1 (SH3-domain GRB2-like 1)	1	0.45	1.7	1.54	enough cells to score	inactive
54	Or2a52 (olfactory receptor family 2 subfamily A member 52)	1	0.35	1.49	1.31	enough cells to score	inactive
55	Gapdhs (glyceraldehyde-3-phosphate dehydrogenase, spermatogenic)	1	-1.89	1.3	1.2	enough cells to score	active
56	Or4x6 (olfactory receptor family 4 subfamily X member 6)	1	1.68	1.78	1.71	enough cells to score	inactive
57	Zkscan17 (zinc finger with KRAB and SCAN domains 17)	1	2.44	1.69	1.81	enough cells to score	inactive
58	Sap30l (SAP30-like)	1	0.05	1.63	1.61	enough cells to score	inactive
59	Rhbg (Rh family B glycoprotein)	1		1.21	1.21	fewer than 50 cells per well; well left out of scoring	inactive

As entered above:
For “p65 translocation robust z-score”, Vamp7 (vesicle-associated membrane protein 7) reads -0.51
Value for Or52s19 (olfactory receptor family 52 subfamily S member 19) under “p65 translocation robust z-score”: 1.34
Value for 4932411K12Rik (retired record) under “nuclear/cytoplasmic p65 ratio, rep 2”: 1.23
